In PMC6927666:
Results are given in words; binding and its absence hold for the method and conditions named. Binding seen in cells or lysates may run through a third protein. Some results given as binding are weak or reduced against the parent protein; the word gives no strength.

Protein sequences, listed by entry. Tags and fused reporters are not part of them.
UniProt Q15796: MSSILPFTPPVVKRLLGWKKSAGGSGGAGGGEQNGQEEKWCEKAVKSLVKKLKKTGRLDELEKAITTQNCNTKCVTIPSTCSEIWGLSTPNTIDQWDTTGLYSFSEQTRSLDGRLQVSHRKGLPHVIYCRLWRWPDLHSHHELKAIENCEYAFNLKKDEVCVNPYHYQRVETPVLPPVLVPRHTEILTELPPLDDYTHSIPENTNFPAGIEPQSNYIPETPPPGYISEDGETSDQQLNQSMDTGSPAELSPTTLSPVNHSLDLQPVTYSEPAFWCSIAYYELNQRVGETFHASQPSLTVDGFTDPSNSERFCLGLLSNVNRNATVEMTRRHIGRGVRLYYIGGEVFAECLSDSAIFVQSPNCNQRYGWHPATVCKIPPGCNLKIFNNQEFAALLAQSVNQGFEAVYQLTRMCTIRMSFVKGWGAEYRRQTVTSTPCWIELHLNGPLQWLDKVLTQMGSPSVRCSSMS
UniProt Q15797: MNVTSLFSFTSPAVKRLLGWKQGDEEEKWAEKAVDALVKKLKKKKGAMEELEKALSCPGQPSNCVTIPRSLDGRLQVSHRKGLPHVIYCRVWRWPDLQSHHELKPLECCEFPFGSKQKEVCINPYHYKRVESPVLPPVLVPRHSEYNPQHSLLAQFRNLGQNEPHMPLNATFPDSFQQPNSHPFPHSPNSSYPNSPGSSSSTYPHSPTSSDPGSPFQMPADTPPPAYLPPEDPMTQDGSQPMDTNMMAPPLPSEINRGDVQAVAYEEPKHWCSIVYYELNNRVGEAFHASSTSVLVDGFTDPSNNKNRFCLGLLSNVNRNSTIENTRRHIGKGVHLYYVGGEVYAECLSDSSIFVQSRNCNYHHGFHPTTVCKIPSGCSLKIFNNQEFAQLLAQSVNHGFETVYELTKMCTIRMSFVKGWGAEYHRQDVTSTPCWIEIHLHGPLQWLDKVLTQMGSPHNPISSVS

Biological target: SMAD2 (human (endogenous in EAhy926)) (UniProt Q15796)
Test: proximity ligation; Duolink in situ PLA on monolayers of EAhy926 endothelial cell clones (BMPR2wt, BMPR2ΔE2, BMPR2KO) on glass coverslips, serum starved for 6 h, TGFβ (200 pM) for 15 min; endogenous proteins, pairs of specific antibodies

Substance: SMAD1 (from UniProt Q15797 1-465)
- binding: binds
